# Data taken from the supplement of paper PMC8728848.
# The list shows a part of the results.
# B1: Thrombomodulin Extracellular (Mus musculus), P15306 (protein)
# chain: MLGIFFLGVLAPASLGLSALAKLQPTGSQCVEHECFALFQGPATFLDASQACQRLQGHLMTVRSSVAADVISLLLSQSSMDLGPWIGLQLPQGCDDPVHLGPLRGFQWVTGDNHTSYSRWARPNDQTAPLCGPLCVTVSTATEAAPGEPAWEEKPCETETQGFLCEFYFTASCRPLTVNTRDPEAAHISSTYNTPFGVSGADFQTLPVGSSAAVEPLGLELVCRAPPGTSEGHWAWEATGAWNCSVENGGCEYLCNRSTNEPRCLCPRDMDLQADGRSCARPVVQSCNELCEHFCVSNAEVPGSYSCMCETGYQLAADGHRCEDVDDCKQGPNPCPQLCVNTKGGFECFCYDGYELVDGECVELLDPCFGSNCEFQCQPVSPTDYRCICAPGFAPKPDEPHKCEMFCNETSCPADCDPNSPTVCECPEGFILDEGSVCTDIDECSQGECFTSECRNFPGSYECICGPDTALAGQISKDCDPIPVREDTKEEEGSGEPPVSPTPGSPTGPPSARPVHSGVLIGISIASLSLVVALLALLCHLRKKQGAARAELEYKCASSAKEVVLQHVRTDRTLQKF
# How the values were obtained:
# Assay in all cases: glycan array binding signal (z-score within array); higher = stronger binding
# Conditions in all cases: glycan notation: IUPAC condensed, linker removed
# [1] = biological target: Neu5Ac(a2-3)Gal(b1-3)GlcNAc6S
# Method in brief: (§1)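 The Consortium for Functional Glycomics database supplied 3228 glycan arrays, of which those lacking an available protein sequence were dropped. The binding signal, a within-array Z-score, was averaged across arrays of the same protein sequence and across linkers. Negative scores can be read as non-binding.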
# [2] = biological target: Neu5Ac(a2-3)Gal(b1-3)[Fuc(a1-4)]GlcNAc
# Method in brief: as §1
# [3] = biological target: Neu5Ac(a2-3)Gal(b1-3)[Fuc(a1-4)]GlcNAc(b1-3)Gal(b1-3)[Fuc(a1-4)]GlcNAc
# Method in brief: as §1
# [4] = biological target: Neu5Ac(a2-3)Gal(b1-3)[Fuc(a1-4)]GlcNAc(b1-3)Gal(b1-4)[Fuc(a1-3)]GlcNAc
# Method in brief: as §1
# [5] = biological target: Neu5Ac(a2-3)Gal(b1-3)[GlcNAc(b1-6)]GalNAc
# Method in brief: as §1
# [6] = biological target: Neu5Ac(a2-3)Gal(b1-3)[Neu5Ac(a2-6)]GalNAc
# Method in brief: as §1
# [7] = biological target: Neu5Ac(a2-3)Gal(b1-3)[Neu5Ac(a2-6)]GlcNAc(b1-3)[Fuc(a1-3)[Gal(b1-4)]GlcNAc(b1-6)]Gal(b1-4)Glc
# Method in brief: as §1
# [8] = biological target: Neu5Ac(a2-3)Gal(b1-3)]Neu5Ac(a2-3)Gal(b1-4)]GlcNAc
# Method in brief: as §1
# [9] = biological target: Neu5Ac(a2-3)Gal(b1-4)Glc
# Method in brief: as §1
# [10] = biological target: Neu5Ac(a2-3)Gal(b1-4)GlcNAc
# Method in brief: as §1
# [11] = biological target: Neu5Ac(a2-3)Gal(b1-4)GlcNAc(b1-2)Man
# Method in brief: as §1
# [12] = biological target: Neu5Ac(a2-3)Gal(b1-4)GlcNAc(b1-2)Man(a1-3)[GlcNAc(b1-4)][Neu5Ac(a2-3)Gal(b1-4)GlcNAc(b1-2)Man(a1-6)]Man(b1-4)GlcNAc(b1-4)GlcNAc
# Method in brief: as §1
# [13] = biological target: Neu5Ac(a2-3)Gal(b1-4)GlcNAc(b1-2)Man(a1-3)[Neu5Ac(a2-3)Gal(b1-4)GlcNAc(b1-2)Man(a1-6)]Man(b1-4)GlcNAc(b1-4)GlcNAc
# Method in brief: as §1
# [14] = biological target: Neu5Ac(a2-3)Gal(b1-4)GlcNAc(b1-2)Man(a1-3)[Neu5Ac(a2-3)Gal(b1-4)GlcNAc(b1-2)Man(a1-6)]Man(b1-4)GlcNAc(b1-4)[Fuc(a1-6)]GlcNAc
# Method in brief: as §1
# [15] = biological target: Neu5Ac(a2-3)Gal(b1-4)GlcNAc(b1-2)Man(a1-3)[Neu5Ac(a2-6)Gal(b1-4)GlcNAc(b1-2)Man(a1-6)]Man(b1-4)GlcNAc(b1-4)GlcNAc
# Method in brief: as §1
# [16] = biological target: Neu5Ac(a2-3)Gal(b1-4)GlcNAc(b1-2)[Neu5Ac(a2-3)Gal(b1-4)GlcNAc(b1-4)]Man(a1-3)[GlcNAc(b1-4)][Neu5Ac(a2-3)Gal(b1-4)GlcNAc(b1-2)[Neu5Ac(a2-3)Gal(b1-4)GlcNAc(b1-6)]Man(a1-6)]Man(b1-4)GlcNAc(b1-4)GlcNAc
# Method in brief: as §1
# [17] = biological target: Neu5Ac(a2-3)Gal(b1-4)GlcNAc(b1-2)[Neu5Ac(a2-3)Gal(b1-4)GlcNAc(b1-4)]Man(a1-3)[GlcNAc(b1-4)][Neu5Ac(a2-3)Gal(b1-4)GlcNAc(b1-4)Man(a1-6)]Man(b1-4)GlcNAc(b1-4)GlcNAc
# Method in brief: as §1
# [18] = biological target: Neu5Ac(a2-3)Gal(b1-4)GlcNAc(b1-2)[Neu5Ac(a2-3)Gal(b1-4)GlcNAc(b1-6)]Man(a1-6)[Neu5Ac(a2-3)Gal(b1-4)GlcNAc(b1-2)Man(a1-3)][GlcNAc(b1-4)]Man(b1-4)GlcNAc(b1-4)GlcNAc
# Method in brief: as §1
# [19] = biological target: Neu5Ac(a2-3)Gal(b1-4)GlcNAc(b1-3)Gal
# Method in brief: as §1
# [20] = biological target: Neu5Ac(a2-3)Gal(b1-4)GlcNAc(b1-3)Gal(b1-3)GlcNAc
# Method in brief: as §1
# [21] = biological target: Neu5Ac(a2-3)Gal(b1-4)GlcNAc(b1-3)Gal(b1-4)GlcNAc
# Method in brief: as §1
# [22] = biological target: Neu5Ac(a2-3)Gal(b1-4)GlcNAc(b1-3)Gal(b1-4)GlcNAc(b1-2)Man(a1-3)[Neu5Ac(a2-3)Gal(b1-4)GlcNAc(b1-3)Gal(b1-4)GlcNAc(b1-2)Man(a1-6)]Man(b1-4)GlcNAc(b1-4)GlcNAc
# Method in brief: as §1
# [23] = biological target: Neu5Ac(a2-3)Gal(b1-4)GlcNAc(b1-3)Gal(b1-4)GlcNAc(b1-3)Gal(b1-4)GlcNAc
# Method in brief: as §1
# [24] = biological target: Neu5Ac(a2-3)Gal(b1-4)GlcNAc(b1-3)Gal(b1-4)GlcNAc(b1-3)Gal(b1-4)GlcNAc(b1-2)Man(a1-3)[Neu5Ac(a2-3)Gal(b1-4)GlcNAc(b1-3)Gal(b1-4)GlcNAc(b1-3)Gal(b1-4)GlcNAc(b1-2)Man(a1-6)]GalNAc
# Method in brief: as §1
# [25] = biological target: Neu5Ac(a2-3)Gal(b1-4)GlcNAc(b1-3)Gal(b1-4)GlcNAc(b1-3)GalNAc
# Method in brief: as §1
# [26] = biological target: Neu5Ac(a2-3)Gal(b1-4)GlcNAc(b1-3)Gal(b1-4)GlcNAc(b1-3)[Neu5Ac(a2-3)Gal(b1-4)GlcNAc(b1-3)Gal(b1-4)GlcNAc(b1-6)]GalNAc
# Method in brief: as §1
# [27] = biological target: Neu5Ac(a2-3)Gal(b1-4)GlcNAc(b1-3)Gal(b1-4)GlcNAc(b1-6)[Gal(b1-3)]GalNAc
# Method in brief: as §1
# [28] = biological target: Neu5Ac(a2-3)Gal(b1-4)GlcNAc(b1-3)Gal(b1-4)[Fuc(a1-3)]GlcNAc
# Method in brief: as §1
# [29] = biological target: Neu5Ac(a2-3)Gal(b1-4)GlcNAc(b1-3)GalNAc
# Method in brief: as §1
# [30] = biological target: Neu5Ac(a2-3)Gal(b1-4)GlcNAc(b1-3)[Neu5Ac(a2-3)Gal(b1-4)GlcNAc(b1-6)]GalNAc
# Method in brief: as §1
binder,measurement,setting,value
B1,glycan array binding signal (z-score),[1],0.217
same,glycan array binding signal (z-score),[2],1.02
same,glycan array binding signal (z-score),[3],0.842
same,glycan array binding signal (z-score),[4],-0.677
same,glycan array binding signal (z-score),[5],-1.64
same,glycan array binding signal (z-score),[6],-0.012
same,glycan array binding signal (z-score),[7],-0.894
same,glycan array binding signal (z-score),[8],-0.84
same,glycan array binding signal (z-score),[9],-0.593
same,glycan array binding signal (z-score),[10],0.054
same,glycan array binding signal (z-score),[11],0.454
same,glycan array binding signal (z-score),[12],-0.092
same,glycan array binding signal (z-score),[13],0.132
same,glycan array binding signal (z-score),[14],-0.652
same,glycan array binding signal (z-score),[15],0.813
same,glycan array binding signal (z-score),[16],-0.306
same,glycan array binding signal (z-score),[17],-0.19
same,glycan array binding signal (z-score),[18],-0.599
same,glycan array binding signal (z-score),[19],0.003
same,glycan array binding signal (z-score),[20],-0.019
same,glycan array binding signal (z-score),[21],0.067
same,glycan array binding signal (z-score),[22],-0.523
same,glycan array binding signal (z-score),[23],-1.49
same,glycan array binding signal (z-score),[24],0.338
same,glycan array binding signal (z-score),[25],-0.036
same,glycan array binding signal (z-score),[26],0.846
same,glycan array binding signal (z-score),[27],-0.623
same,glycan array binding signal (z-score),[28],-0.925
same,glycan array binding signal (z-score),[29],1.03
same,glycan array binding signal (z-score),[30],0.215

# Pulled one by one from the entries so far (two):
binder,measurement,setting,value
B1,glycan array binding signal (z-score),[13],0.132
same,glycan array binding signal (z-score),[8],-0.84
